Results deposited as PubChem BioAssay AID1259254 (NCATS, 2017)
Here is one part, drawn at random, of about 59,000 reagents tested. In the full data, about 1,550 (2.6%) were called active. 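G2 share is only a proxy for re-replication; each gene was hit by three separate siRNAs, and active genes were retested.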 The numbers tell different reagents against one gene apart. Not all columns of the deposit are shown. No sequences are given here. Not given: the amount of reagent.

- Test: 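Finding genes that stop cells copying their DNA twice in one cycle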 (primary screen)
- System: human HCT116 colorectal cancer cells
- Reagent: single siRNA against human genes
- Duration: 3 days
- Measurement: 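Nuclei stained with Hoechst and imaged; cell-cycle phase assigned by DNA content; G2 share scaled per plate, non-targeting siRNA 0%, GMNN siRNA 100%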
- Reading the numbers: G2 robust z-score: higher = more G2 cells, more excess DNA replication
- Active means: 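An siRNA counts as active if its G2 robust z-score lies at least 5 MADs above the screen median; here such calls match roughly 38% of GMNN control or more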

gene knocked down | siRNA no. | G2 robust z-score | outcome
KMT2C (lysine methyltransferase 2C) | 1 | -0.313 | inactive
KMT2C (lysine methyltransferase 2C) | 2 | 2.5 | inactive
KMT2C (lysine methyltransferase 2C) | 3 | 0.127 | inactive
OR2L13 (olfactory receptor family 2 subfamily L member 13) | 1 | -0.833 | inactive
OR2L13 (olfactory receptor family 2 subfamily L member 13) | 2 | 1.15 | inactive
OR2L13 (olfactory receptor family 2 subfamily L member 13) | 3 | -0.152 | inactive
FOXS1 (forkhead box S1) | 1 | -0.305 | inactive
FOXS1 (forkhead box S1) | 2 | 4.02 | inactive
FOXS1 (forkhead box S1) | 3 | 1.64 | inactive
ZFP36 (ZFP36 zinc finger CCCH-type) | 1 | 1.18 | inactive
ZFP36 (ZFP36 zinc finger CCCH-type) | 2 | 8.05 | active
ZFP36 (ZFP36 zinc finger CCCH-type) | 3 | -0.201 | inactive
FBXO22 (F-box protein 22) | 1 | 2.73 | inactive
FBXO22 (F-box protein 22) | 2 | 3.05 | inactive
FBXO22 (F-box protein 22) | 3 | -0.16 | inactive
RPS10P30 (ribosomal protein S10 pseudogene 30) | 1 | 2.55 | inactive
RPS10P30 (ribosomal protein S10 pseudogene 30) | 2 | -0.295 | inactive
RPS10P30 (ribosomal protein S10 pseudogene 30) | 3 | 4.67 | inactive
HOXA1 (homeobox A1) | 1 | 3.47 | inactive
HOXA1 (homeobox A1) | 2 | 0.18 | inactive
HOXA1 (homeobox A1) | 3 | 2.16 | inactive

Continued (3 carried over from the part before).
gene knocked down | siRNA no. | G2 robust z-score | outcome
HOXA1 (homeobox A1) | 1 | 3.47 | inactive
HOXA1 (homeobox A1) | 2 | 0.18 | inactive
HOXA1 (homeobox A1) | 3 | 2.16 | inactive
HLA-K (major histocompatibility complex, class I, K (pseudogene)) | 1 | -0.256 | inactive
HLA-K (major histocompatibility complex, class I, K (pseudogene)) | 2 | 0.924 | inactive
HLA-K (major histocompatibility complex, class I, K (pseudogene)) | 3 | 2.05 | inactive
ARAP2 (ArfGAP with RhoGAP domain, ankyrin repeat and PH domain 2) | 1 | 0.334 | inactive
ARAP2 (ArfGAP with RhoGAP domain, ankyrin repeat and PH domain 2) | 2 | -0.708 | inactive
ARAP2 (ArfGAP with RhoGAP domain, ankyrin repeat and PH domain 2) | 3 | -0.496 | inactive
LMAN1L (lectin, mannose binding 1 like) | 1 | 0.226 | inactive
LMAN1L (lectin, mannose binding 1 like) | 2 | -0.432 | inactive
LMAN1L (lectin, mannose binding 1 like) | 3 | -0.861 | inactive
TMEM41A (transmembrane protein 41A) | 1 | 0.552 | inactive
TMEM41A (transmembrane protein 41A) | 2 | -0.546 | inactive
TMEM41A (transmembrane protein 41A) | 3 | 0.0391 | inactive
SLC9C1 | 1 | -0.239 | inactive
SLC9C1 | 2 | -0.311 | inactive
SLC9C1 | 3 | -1.21 | inactive
SMOX (spermine oxidase) | 1 | -0.698 | inactive
SMOX (spermine oxidase) | 2 | -0.976 | inactive
SMOX (spermine oxidase) | 3 | 2.45 | inactive
SCN4A (sodium voltage-gated channel alpha subunit 4) | 1 | -0.768 | inactive
SCN4A (sodium voltage-gated channel alpha subunit 4) | 2 | 0.109 | inactive
SCN4A (sodium voltage-gated channel alpha subunit 4) | 3 | 6.21 | active
DIO2 (iodothyronine deiodinase 2) | 1 | -1.12 | inactive
DIO2 (iodothyronine deiodinase 2) | 2 | 0.587 | inactive
DIO2 (iodothyronine deiodinase 2) | 3 | -0.892 | inactive
NDUFB4 (NADH:ubiquinone oxidoreductase subunit B4) | 1 | 1.16 | inactive
NDUFB4 (NADH:ubiquinone oxidoreductase subunit B4) | 2 | -0.816 | inactive
NDUFB4 (NADH:ubiquinone oxidoreductase subunit B4) | 3 | -0.228 | inactive
